In publication doi:10.1101/586834:
No constants are given. Whether binding was seen depends on the method and setting. In cells and extracts the contact can be indirect. Here binding means that the protein was enriched with, or labelled near, the bait; the list need not be complete. For some of these results: Sequences can lack the tags named with a protein.

The chains behind the UniProt entries cited, without tags or fusion partners. Where a name states a change or a piece, a line headed by the entry shows the natural chain unless it says otherwise.
UniProt Q9TZB2: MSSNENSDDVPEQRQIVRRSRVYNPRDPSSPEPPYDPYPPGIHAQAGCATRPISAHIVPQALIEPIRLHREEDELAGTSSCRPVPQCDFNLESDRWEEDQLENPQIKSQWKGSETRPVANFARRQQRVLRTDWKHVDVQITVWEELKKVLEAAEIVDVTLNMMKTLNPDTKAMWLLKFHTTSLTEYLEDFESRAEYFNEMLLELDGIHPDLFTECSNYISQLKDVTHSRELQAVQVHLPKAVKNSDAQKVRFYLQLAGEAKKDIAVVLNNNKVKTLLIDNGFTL
UniProt Q3V5H4: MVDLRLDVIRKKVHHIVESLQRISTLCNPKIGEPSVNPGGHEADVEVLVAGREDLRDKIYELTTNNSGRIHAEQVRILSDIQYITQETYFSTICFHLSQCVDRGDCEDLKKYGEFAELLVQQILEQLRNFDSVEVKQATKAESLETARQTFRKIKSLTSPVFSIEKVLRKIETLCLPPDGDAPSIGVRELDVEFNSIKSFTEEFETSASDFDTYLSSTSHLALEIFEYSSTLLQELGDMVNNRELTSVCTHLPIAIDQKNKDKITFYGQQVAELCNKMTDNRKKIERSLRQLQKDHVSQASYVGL

T1: CUL-6::GFP::3xFLAG (C. elegans) (UniProt Q21346)
T1 sequence: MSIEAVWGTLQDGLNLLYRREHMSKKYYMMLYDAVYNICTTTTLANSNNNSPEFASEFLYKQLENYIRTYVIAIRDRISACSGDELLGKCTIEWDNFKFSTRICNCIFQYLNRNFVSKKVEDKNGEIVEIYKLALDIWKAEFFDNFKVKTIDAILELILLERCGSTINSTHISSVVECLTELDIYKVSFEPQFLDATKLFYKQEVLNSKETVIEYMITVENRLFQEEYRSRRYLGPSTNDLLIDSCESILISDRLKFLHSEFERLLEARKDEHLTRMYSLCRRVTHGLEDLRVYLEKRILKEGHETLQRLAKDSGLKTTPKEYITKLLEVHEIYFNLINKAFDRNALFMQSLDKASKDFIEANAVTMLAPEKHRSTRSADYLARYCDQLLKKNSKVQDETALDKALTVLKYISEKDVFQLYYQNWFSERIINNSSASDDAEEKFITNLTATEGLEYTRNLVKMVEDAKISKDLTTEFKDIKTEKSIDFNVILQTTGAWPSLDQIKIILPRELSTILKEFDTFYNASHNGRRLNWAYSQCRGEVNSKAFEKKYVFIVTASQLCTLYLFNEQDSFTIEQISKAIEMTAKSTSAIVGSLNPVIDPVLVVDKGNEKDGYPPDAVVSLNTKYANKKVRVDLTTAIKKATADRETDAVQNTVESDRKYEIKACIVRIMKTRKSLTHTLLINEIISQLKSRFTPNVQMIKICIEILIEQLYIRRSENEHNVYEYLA


target: T1, CUL-6::GFP::3xFLAG (C. elegans); experiment: affinity purification with mass spectrometry

Row | binding | Molecule
1 | binds | RPN-6.1 (protein, UniProt Q20938 1-438) MRETSSREDTNNIGKAPEMSGGTIMDTMTSLPHQNDQNVIRHLTNLVKSPASGDDDIKKKEDSIMELGNILAQNKQTEELRNMIEQTRPFLVSLGKAKAAKLVRDLVDLCLKIDDQDGDIKVGLVKECIQWATEQNRTFLRQTLTARLVRLYNDLQRYTQALPLAADLIRELKKVDDKDVLVEVELEESKAYYNLSNIGRARASLTGARTTANAIYVNPRMQAALDLQSGILHAADEKDFKTAFSYFYEAFEGYDSVDEKVSALTALKYMLLCKVMLDLPDEVNSLLSAKLALKYNGSDLDAMKAIAAAAQKRSLKDFQVAFGSFPQELQMDPVVRKHFHSLSERMLEKDLCRIIEPYSFVQIEHVAQQIGIDRSKVEKKLSQMILDQKLSGSLDQGEGMLIVFEIAVPDEAYQTALDTIHAMGEVVDALYSNASKIN
2 | binds | RPT-4 (protein, UniProt O17071 1-406) MLLLQFSNMVEPTGPAIVEDERTKALNSYRRKLAECRDIEQKLKDLRKKESEMTKQFDKSENDIKSLQSVGQIVGEVLKQLSEEKFIVKATNGPRYVVGCRRSINKEELKQGTRVSLDMTTLTIMRQLPREVDPLVYKMSHEDPGNISYSDVGGLAEQIRELREVVELPLINPELFKRVGITPPKGCLLFGPPGTGKTLLARAVASQLDCNFLKVVSSAIVDKYIGESARMIREMFNYARDHQPCIVFMDEIDAIGGRRFSEGTSADREIQRTLMELLNQLDGFDSLGKVKVIMATNRPDTLDPALLRPGRLDRKIEIGLPNEQSRLEILKIHSNKITKHGEIDFEAVVKLSDGFSAADLRNVCTEAGMFAIRAEREFVIDEDFMKAVRKVGDAKRLETKLDYKPV
3 | binds | RPN-8 (protein, UniProt O61792 1-362) MAPTNKDGDVATVKAVDVLKQKAGAHHCLGNVHANLPVNKVTVHPLVLLSVVDHFNRVSKTQSVKRVVGVLLGSMKKDKTLDIGNSFAVPFDEDDKDKSTWFLDMDYLESMYGMFYKVAAKEKIVGWYHTGPKLHKNDIAINEQLKRFCPNPVLVIIDAEPKNIGLPTEAYIEVQEVHDDGTPPIKTFEHVPSDIGAEEAEEVGVEHLLRDIKDQTAGTLSQRITDQLMGLRGLQSQLESIEKYLHDIVRGTLPVNHHVIYYVQEVLNLLPDVTHPDYIVSQNVQTNDQLMCVYMGSLVRSVVALHNLIDNKISLQKAEKEQETGEAEKKKDEKDKKDKKDEKKDEKKEKDSKSSTPNTPKK
4 | binds | RPT-3 (protein, UniProt P46502 1-414) MSAAALEEIGIAPLQENTSLRPPPLPATCVDVSSDDYIKLTTLERQLAHLQVMEDYIKLETRNLEKELLHAQEEVKRIQSVPLVIGQFLEAVDQNHAIVGSTTGSNYYVRVLSILDRELLKPGCSVALHKYSNALVDVLPPEADSSIQMLRPDEKPDISYGDIGGLDMQKQEVREAVELPLTHGELYQQIGIDPPRGVLMYGPPGCGKTMLAKAVAANTAASFIRVVGSEFVQKYLGEGPRMVRDVFRLAKENSPSIIFIDEIDAIATKRFDAQTGADREVQRILLELLNQMDGFDQSTNVKVIMATNRQDTLDPALLRPGRLDRKIEFPLPDRRQKRLVFSTVCSRMNLSDDVDLEDWVARPDKISGADINSICQEAGMQAVRENRYVVLTKDLEKAYKNVVKKDTNDFEFYK

target: PALS-22::GFP::3xFLAG (C. elegans) (UniProt Q9TZB2); experiment: affinity purification with mass spectrometry

Row | binding | Molecule
5 | binds | PALS-25 (from UniProt Q3V5H4)

target: T1, CUL-6::GFP::3xFLAG (C. elegans); experiment: affinity purification with mass spectrometry; remark: another data set of the same source

Row | binding | Molecule
6 | binds | RPN-5 (from UniProt Q19324)
7 | binds | RPN-9 (from UniProt Q22253)
8 | binds | F-box protein FBXA-158 (C. elegans (endogenous in whole animals))
9 | binds | Skp-related protein SKR-3 (from UniProt G5EE67)
10 | binds | FBXA-75 (from UniProt Q966E2)
